Values quoted from earlier work as cited in patent US20020123504A1, “Lactose-free, non-hygroscopic and anhydrous pharmaceutical compositions of descarboethoxyloratadine” (SEPRACOR INC., priority 1997, published 2002).

Tested on: tumor promotion
Conditions: cited from earlier work

## Clc1ccc2c(c1)CCc1cccnc1C2=C1CCNCC1 [DCL, 8-chloro-6,11-dihydro-11-(4-piperidylidene)-5H-benzo[5,6]cyclohepta[1,2-b]pyridine]
  Activity in tumor promotion relative to loratadine: five to seven times less active
